Data as given in PubChem BioAssay AID1259254 (NCATS, 2017).
Screen: 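Gene knock-downs that lead to re-replication, shown by excess G2 DNA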 (primary screen). Cell system: human HCT116 colorectal cancer cells. Knock-down reagent: single siRNA against human genes. Duration: 3 days. Detection: 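Nuclei stained with Hoechst and imaged; cell-cycle phase assigned by DNA content; G2 share scaled per plate, non-targeting siRNA 0%, GMNN siRNA 100%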. Scale: G2 robust z-score and G2 cells, % of GMNN control: higher = more G2 cells, more excess DNA replication. Call rule: 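An siRNA counts as active if its G2 robust z-score lies at least 5 MADs above the screen median; here such calls match roughly 38% of GMNN control or more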.
The whole screen tested about 59,000 reagents; this is a part drawn at random. About 1,550 of them (2.6%) count as active. 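G2 share is only a proxy for re-replication; each gene was hit by three separate siRNAs, and active genes were retested.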 The numbers tell different reagents against one gene apart. Further read-outs or replicates are left out here. The record does not give: the amount of reagent.

Depletion of SPMIP2 (GeneID 152940) #1 resulted in: G2 robust z-score -0.617; G2 cells, % of GMNN control -1.37; inactive.
With knock-down of SPMIP2 (GeneID 152940) #2, the record shows G2 robust z-score -0.144; G2 cells, % of GMNN control 1.95; inactive.
SPMIP2 (GeneID 152940) #3 scored G2 robust z-score 0.393; G2 cells, % of GMNN control 5.73; inactive.
After knock-down of NEK8 (GeneID 284086) #1, the screen gave G2 robust z-score 0.858; G2 cells, % of GMNN control 9.01; inactive.
Against NEK8 (GeneID 284086) #2 the deposit lists G2 robust z-score -0.844; G2 cells, % of GMNN control -2.97; inactive.
With knock-down of NEK8 (GeneID 284086) #3, the screen gave G2 robust z-score 0.227; G2 cells, % of GMNN control 4.57; inactive.
MCOLN1 (GeneID 57192) #1 showed G2 robust z-score 2.5; G2 cells, % of GMNN control 20.6; inactive.
For MCOLN1 (GeneID 57192) #2, the entry reads G2 robust z-score 1.5; G2 cells, % of GMNN control 13.5; inactive.
For MCOLN1 (GeneID 57192) #3, the values are G2 robust z-score -0.0425; G2 cells, % of GMNN control 2.67; inactive.
With knock-down of NCBP1 (GeneID 4686) #1 the results were G2 robust z-score 0.572; G2 cells, % of GMNN control 6.99; inactive.
Against NCBP1 (GeneID 4686) #2, the entry reads G2 robust z-score -0.992; G2 cells, % of GMNN control -4.01; inactive.
Against NCBP1 (GeneID 4686) #3, the entry reads G2 robust z-score 1.38; G2 cells, % of GMNN control 12.7; inactive.
SLC51A (GeneID 200931) #1 gave G2 robust z-score 0.545; G2 cells, % of GMNN control 6.81; inactive.
Knock-down of SLC51A (GeneID 200931) #2 gave: G2 robust z-score -0.856; G2 cells, % of GMNN control -3.06; inactive.
With knock-down of SLC51A (GeneID 200931) #3 the results were G2 robust z-score 1.57; G2 cells, % of GMNN control 14; inactive.
After knock-down of AFAP1L2 (GeneID 84632) #1, the screen gave G2 robust z-score -0.51; G2 cells, % of GMNN control -0.618; inactive.
Depletion of AFAP1L2 (GeneID 84632) #2 came out at: G2 robust z-score -0.0485; G2 cells, % of GMNN control 2.63; inactive.
AFAP1L2 (GeneID 84632) #3 scored G2 robust z-score -0.922; G2 cells, % of GMNN control -3.52; inactive.
Knock-down of MGST1 (GeneID 4257) #1 resulted in: G2 robust z-score -0.399; G2 cells, % of GMNN control 0.162; inactive.
Silencing of MGST1 (GeneID 4257) #2 gave: G2 robust z-score -0.861; G2 cells, % of GMNN control -3.09; inactive.
Silencing of MGST1 (GeneID 4257) #3 resulted in: G2 robust z-score -0.183; G2 cells, % of GMNN control 1.68; inactive.
Depletion of EMC7 (GeneID 56851) #1 came out at: G2 robust z-score -1.05; G2 cells, % of GMNN control -4.45; inactive.
For EMC7 (GeneID 56851) #2, the entry reads G2 robust z-score 0.555; G2 cells, % of GMNN control 6.87; inactive.
Silencing of EMC7 (GeneID 56851) #3 gave: G2 robust z-score -0.742; G2 cells, % of GMNN control -2.26; inactive.
